Some of the results follow. Repeats in this data set agree poorly, so a single value says little.

The chains behind the UniProt entries cited, without tags or fusion partners.
UniProt Q15717, whole entry: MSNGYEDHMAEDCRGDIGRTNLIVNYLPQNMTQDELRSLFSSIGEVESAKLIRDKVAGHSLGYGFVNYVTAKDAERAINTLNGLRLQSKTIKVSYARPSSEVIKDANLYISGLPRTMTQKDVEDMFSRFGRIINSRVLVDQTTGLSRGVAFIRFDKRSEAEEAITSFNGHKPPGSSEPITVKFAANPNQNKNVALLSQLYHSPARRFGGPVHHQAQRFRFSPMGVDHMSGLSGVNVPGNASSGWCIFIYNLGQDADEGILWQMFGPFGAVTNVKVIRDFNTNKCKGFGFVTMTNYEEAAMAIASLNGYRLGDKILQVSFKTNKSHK

In this assay the target is HuR (ELAVL1) - TNFalpha ARE RNA complex (UniProt Q15717). The experiment in a line: AlphaScreen HuR-RNA complex signal Z-score relative to positive (Bi-TNF, DMSO) controls (Z-score (SD units of positive control)); higher = more complex signal. The settings on record: screen stage: primary screen; compound concentration: 25 nM. Background: Bead proximity is the source of the signal in Alpha formats.
For `Cc1cc(O)c2c(O)c3c(O)cccc3cc2c1`, the “AlphaScreen HuR-RNA complex signal Z-score” value came to 1.69.

In the case of `C=CCSCC1Nc2cc(Cl)c(S(N)(=O)=O)cc2S(=O)(=O)N1` (stereo unspecified), the “AlphaScreen HuR-RNA complex signal Z-score” value came to 0.168.

Consider `c1ccc(CN(CC2=NCCN2)c2ccccc2)cc1`, for which the “AlphaScreen HuR-RNA complex signal Z-score” value was 0.0329.

As for `COc1c(N2CCNC(C)C2)c(F)cc2c(=O)c(C(=O)O)cn(C3CC3)c12` (stereo unspecified), the “AlphaScreen HuR-RNA complex signal Z-score” value was -1.61.

As for `N[C@@H](C(=O)O)[C@@H](O)[C@H](O)[C@H](O)CO`, the “AlphaScreen HuR-RNA complex signal Z-score” value amounted to 3.44.

Consider `O=C(c1ccccc1)c1ccc2n1CCC2C(=O)O` (stereo unspecified), for which the “AlphaScreen HuR-RNA complex signal Z-score” value was 1.12.

Take `CCOC(=O)[C@@](C)(N)Cc1ccc(O)c(O)c1`: the “AlphaScreen HuR-RNA complex signal Z-score” value was 0.752.

On to `OCc1ccccc1O`, for which the “AlphaScreen HuR-RNA complex signal Z-score” value was determined as 20.5.

For `CC1(C)CC2C1CCC1(C)OC2(C)CCC1O` (stereo unspecified), the “AlphaScreen HuR-RNA complex signal Z-score” value turned out to be 2.26.

`C=C(C)[C@@H]1CC=C(CO)CC1`: the “AlphaScreen HuR-RNA complex signal Z-score” value was found to be 2.27.

Take `COC1=C(OC)C(=O)C(C/C=C(\C)CC/C=C(\C)CC/C=C(\C)CC/C=C(/C)CC/C=C(\C)CC/C=C(\C)CC/C=C(\C)CC/C=C(\C)CC/C=C(\C)CCC=C(C)C)=C(C)C1=O`: the “AlphaScreen HuR-RNA complex signal Z-score” value worked out at 1.87.

Take `FC(F)(F)COCC(F)(F)F`: the “AlphaScreen HuR-RNA complex signal Z-score” value is 0.0994.

`CCN[C@@H]1C[C@H](N)[C@@H](O[C@H]2OC(CN)=CC[C@H]2N)[C@H](O)[C@H]1O[C@H]1OC[C@](C)(O)[C@H](NC)[C@H]1O`: the “AlphaScreen HuR-RNA complex signal Z-score” value came to 0.326.

For the compound `CNc1ccccc1C(=O)N1CCc2c([nH]c3ccccc23)C1=O`, the “AlphaScreen HuR-RNA complex signal Z-score” value came out at 0.058.

In the case of `COc1ccc2c(=O)c(CC(=O)O)coc2c1`, the “AlphaScreen HuR-RNA complex signal Z-score” value came to 0.366.

With `COc1ccccc1OCC(O)COC(N)=O` (stereo unspecified), the “AlphaScreen HuR-RNA complex signal Z-score” value was determined as 2.2.

Regarding `Nc1c2c(nc3ccccc13)CCCC2O` (stereo unspecified), the “AlphaScreen HuR-RNA complex signal Z-score” value was found to be 1.21.

With `C=CCCCCCCCCC(=O)[O-].C=CCCCCCCCCC(=O)[O-].[Zn+2]`, the “AlphaScreen HuR-RNA complex signal Z-score” value is 1.37.

Take `O=c1cc(-c2ccccc2)oc2cccc(O)c12`: the “AlphaScreen HuR-RNA complex signal Z-score” value was 2.31.

On to `CO/N=C(\C(=O)N[C@@H]1C(=O)N2C(C(=O)OC(C)OC(C)=O)=C(COC(N)=O)CS[C@H]12)c1ccco1` (stereo partly specified), for which the “AlphaScreen HuR-RNA complex signal Z-score” value came out at 1.88.

As to `CN(C/C=C/C#CC(C)(C)C)Cc1cccc2ccccc12`, the “AlphaScreen HuR-RNA complex signal Z-score” value was 0.922.

Regarding `Fc1ccc([C@@H]2CCNC[C@H]2COc2ccc3c(c2)OCO3)cc1`, the “AlphaScreen HuR-RNA complex signal Z-score” value stood at 1.06.

With `C=C1CCC2C(CC2(C)C)C(=O)CCC1O` (stereo unspecified), the “AlphaScreen HuR-RNA complex signal Z-score” value came to 1.15.

With `NC(CO)C(=O)NNCc1ccc(O)c(O)c1O` (stereo unspecified), the “AlphaScreen HuR-RNA complex signal Z-score” value turned out to be 0.378.

Turning to `CN(C)CCCN1c2ccccc2CCc2ccccc21`, the “AlphaScreen HuR-RNA complex signal Z-score” value is -5.96.

Regarding `C[C@H]1COc2c(N3CCN(C)CC3)c(F)cc3c(=O)c(C(=O)O)cn1c23`, the “AlphaScreen HuR-RNA complex signal Z-score” value is -8.73.

As to `O=C(NC1CCCCC1)NC1CCCCC1`, the “AlphaScreen HuR-RNA complex signal Z-score” value was determined as 4.12.

On to `CN1CCC(OC(c2ccccc2)c2ccccc2)CC1`, for which the “AlphaScreen HuR-RNA complex signal Z-score” value is -1.91.

Regarding `O=C(Oc1cccc2cccnc12)c1ccccc1`, the “AlphaScreen HuR-RNA complex signal Z-score” value is -0.953.

In the case of `C/C=C1\[C@H]2C=C(C)C[C@]1(N)c1ccc(=O)[nH]c1C2`, the “AlphaScreen HuR-RNA complex signal Z-score” value is 1.71.

Turning to `C[N+](C)(C)CCO.[Cl-]`, the “AlphaScreen HuR-RNA complex signal Z-score” value stood at 0.0639.

As for `CC(C)=CCOc1cc2oc(=O)ccc2cc1O`, the “AlphaScreen HuR-RNA complex signal Z-score” value was found to be 0.978.

Turning to `COc1cc(/C=C/C(=O)CC(=O)/C=C/c2ccc(O)c(OC)c2)ccc1O`, the “AlphaScreen HuR-RNA complex signal Z-score” value is 0.606.

Turning to `Cc1cc2nc3c(=O)[nH]c(=O)nc-3n(CC(O)C(O)C(O)COP(=O)(O)O)c2cc1C` (stereo unspecified), the “AlphaScreen HuR-RNA complex signal Z-score” value is 0.935.

As to `NCC[C@H](O)C(=O)N[C@@H]1C[C@H](N)[C@@H](O[C@H]2O[C@H](CN)[C@@H](O)[C@H](O)[C@H]2O)[C@H](O)[C@H]1O[C@H]1O[C@H](CO)[C@@H](O)[C@H](N)[C@H]1O`, the “AlphaScreen HuR-RNA complex signal Z-score” value was 0.31.

As for `COc1ccc2c(c1)OC[C@@H](Cc1ccc(OC)c(OC)c1)[C@H]2O`, the “AlphaScreen HuR-RNA complex signal Z-score” value came to 0.863.

Consider `Cn1cnc([N+](=O)[O-])c1Sc1ncnc2[nH]cnc12`, for which the “AlphaScreen HuR-RNA complex signal Z-score” value was 0.272.

Consider `CC(C)C(=O)Nc1ccc([N+](=O)[O-])c(C(F)(F)F)c1`, for which the “AlphaScreen HuR-RNA complex signal Z-score” value stood at 0.206.

Regarding `CC(=O)OCC[N+](C)(C)C`, the “AlphaScreen HuR-RNA complex signal Z-score” value was found to be 0.412.

Turning to `CC(=O)O[C@H]1C[C@@H](OC(C)=O)C(C)(C)C2CC(=O)[C@]3(C)C(CC[C@@]4(C)[C@H](c5ccoc5)OC(=O)[C@H]5O[C@]543)[C@]21C` (stereo partly specified), the “AlphaScreen HuR-RNA complex signal Z-score” value was -4.91.

On to `CC(=O)O[C@@H]1CC2C(C)(C)C(=O)CC[C@]2(C)C2CC[C@]3(C)C(=CC(=O)O[C@H]3c3ccoc3)[C@@]21C` (stereo partly specified), for which the “AlphaScreen HuR-RNA complex signal Z-score” value was 2.58.

For `O=C(O)c1nc2cc(Cl)c(Cl)cc2nc1O`, the “AlphaScreen HuR-RNA complex signal Z-score” value worked out at 2.32.

As for `C[C@H](CCC(=O)O)[C@H]1CC[C@H]2[C@@H]3CC[C@@H]4C[C@H](O)CC[C@]4(C)[C@H]3CC[C@]12C`, the “AlphaScreen HuR-RNA complex signal Z-score” value stood at 1.07.

As for `O=C(O)CCCC[C@@H]1SC[C@@H]2NC(=O)N[C@@H]21`, the “AlphaScreen HuR-RNA complex signal Z-score” value turned out to be 0.748.

Regarding `CC1COc2c(N3CCN(C)CC3)c(F)cc3c(=O)c(C(=O)O)cn1c23` (stereo unspecified), the “AlphaScreen HuR-RNA complex signal Z-score” value stood at 0.831.

Turning to `COc1ccc2c(c1)O[C@H]1c3ccc(OC)cc3OC[C@@H]21`, the “AlphaScreen HuR-RNA complex signal Z-score” value is 3.4.

As to `CC(C)NCC(O)c1cc(O)cc(O)c1` (stereo unspecified), the “AlphaScreen HuR-RNA complex signal Z-score” value amounted to 0.346.

Consider `O=C(O)CN(CCN(CC(=O)O)CC(=O)O)CCN(CC(=O)O)CC(=O)O`, for which the “AlphaScreen HuR-RNA complex signal Z-score” value was -0.0536.

Regarding `COc1ccc(-c2cc(=O)c3c(OC)c(OC)c(OC)cc3o2)cc1OC`, the “AlphaScreen HuR-RNA complex signal Z-score” value is 2.37.

As for `O=C(/C=C/C=C/c1ccc2c(c1)OCO2)N1CCCCC1`, the “AlphaScreen HuR-RNA complex signal Z-score” value came to 0.798.

As for `CCC(=O)OCC(=O)[C@@]1(OC(=O)CC)[C@@H](C)C[C@H]2[C@@H]3CCC4=CC(=O)C=C[C@]4(C)[C@@]3(Cl)[C@@H](O)C[C@@]21C`, the “AlphaScreen HuR-RNA complex signal Z-score” value is 0.389.
